Consider four substances from publication PMC2917022.

Amino acid sequences for entries named in this document (tags omitted). A change or cut given only in a name is not applied to a line headed by its entry.
UniProt P49674: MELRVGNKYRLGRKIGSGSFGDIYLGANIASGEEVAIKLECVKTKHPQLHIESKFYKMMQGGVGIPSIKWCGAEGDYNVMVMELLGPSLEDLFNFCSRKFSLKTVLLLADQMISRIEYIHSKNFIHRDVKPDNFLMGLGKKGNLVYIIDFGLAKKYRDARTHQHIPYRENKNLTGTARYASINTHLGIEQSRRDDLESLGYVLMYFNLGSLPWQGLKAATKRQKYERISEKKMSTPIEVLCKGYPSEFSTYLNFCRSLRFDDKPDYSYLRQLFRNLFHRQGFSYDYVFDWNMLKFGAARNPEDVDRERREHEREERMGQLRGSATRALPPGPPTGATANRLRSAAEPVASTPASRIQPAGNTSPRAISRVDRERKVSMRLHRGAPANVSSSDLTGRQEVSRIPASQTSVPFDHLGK

In experiment [1] the target is T1, mDvl2-Myc (Dishevelled 2) (mouse) (UniProt Q60838).
T1 sequence: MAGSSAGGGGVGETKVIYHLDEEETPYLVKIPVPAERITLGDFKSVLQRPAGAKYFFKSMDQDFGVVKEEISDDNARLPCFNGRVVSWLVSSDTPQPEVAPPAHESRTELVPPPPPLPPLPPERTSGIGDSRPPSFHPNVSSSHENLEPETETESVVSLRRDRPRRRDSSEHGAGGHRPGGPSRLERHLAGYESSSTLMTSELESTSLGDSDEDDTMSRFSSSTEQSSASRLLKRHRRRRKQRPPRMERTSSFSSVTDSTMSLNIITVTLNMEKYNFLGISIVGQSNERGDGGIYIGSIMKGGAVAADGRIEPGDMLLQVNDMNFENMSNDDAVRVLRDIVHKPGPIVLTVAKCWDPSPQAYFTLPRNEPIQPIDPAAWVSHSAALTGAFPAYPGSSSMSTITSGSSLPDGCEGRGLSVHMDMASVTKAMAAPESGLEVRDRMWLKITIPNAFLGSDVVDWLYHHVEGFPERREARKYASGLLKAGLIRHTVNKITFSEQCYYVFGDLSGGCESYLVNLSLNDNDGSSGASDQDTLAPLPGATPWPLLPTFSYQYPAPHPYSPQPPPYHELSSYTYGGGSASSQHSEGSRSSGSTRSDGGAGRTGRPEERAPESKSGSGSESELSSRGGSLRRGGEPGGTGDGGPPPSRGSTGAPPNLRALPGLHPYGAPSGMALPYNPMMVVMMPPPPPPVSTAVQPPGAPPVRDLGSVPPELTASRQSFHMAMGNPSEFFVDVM
Nature of the experiment: co-IP; HEK293 cells co-transfected with CK1ε variant and Dvl2-Myc, lysed, immunoprecipitated with anti-Myc antibody, western blot. In general terms: In western blotting, separated proteins are transferred to a membrane and probed.

The target of experiment [2] is T2, human Dvl3-Flag (Dishevelled 3) (human) (UniProt Q92997).
T2 sequence: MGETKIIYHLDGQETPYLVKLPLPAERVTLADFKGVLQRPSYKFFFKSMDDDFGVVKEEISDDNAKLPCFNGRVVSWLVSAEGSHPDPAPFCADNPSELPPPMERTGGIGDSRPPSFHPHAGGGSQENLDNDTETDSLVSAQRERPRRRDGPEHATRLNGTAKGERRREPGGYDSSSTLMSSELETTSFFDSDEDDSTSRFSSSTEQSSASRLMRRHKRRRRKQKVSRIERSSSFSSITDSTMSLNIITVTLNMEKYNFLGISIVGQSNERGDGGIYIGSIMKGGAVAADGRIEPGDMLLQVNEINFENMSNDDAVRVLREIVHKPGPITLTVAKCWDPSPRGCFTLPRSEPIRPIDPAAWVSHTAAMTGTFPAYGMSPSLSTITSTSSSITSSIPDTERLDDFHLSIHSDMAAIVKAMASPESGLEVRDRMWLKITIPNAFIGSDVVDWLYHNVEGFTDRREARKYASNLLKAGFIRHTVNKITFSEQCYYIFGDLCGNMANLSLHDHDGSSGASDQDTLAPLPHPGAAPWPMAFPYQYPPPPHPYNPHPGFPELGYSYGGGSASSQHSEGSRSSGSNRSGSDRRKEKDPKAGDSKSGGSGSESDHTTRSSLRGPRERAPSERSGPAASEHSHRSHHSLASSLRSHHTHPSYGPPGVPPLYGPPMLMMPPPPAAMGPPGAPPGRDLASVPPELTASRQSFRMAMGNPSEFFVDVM
Nature of the experiment: co-IP; HEK293 cells co-transfected with CK1ε variant and Dvl3-Flag, lysed, immunoprecipitated with anti-Flag antibody, western blot.

No constants are given. Whether binding was seen depends on the method and setting. In cells and extracts the contact can be indirect. Some results given as binding are weak or reduced against the parent protein; the word gives no strength. Where a sequence is shown, tags or fusion partners need not be part of it.

As to “CK1ε P3 mutant (L39Q, S101R) (from UniProt P49674 1-416) (enzyme)”, the binding entry in experiment [1] and in experiment [2] was “binds” each time.

In the case of “CK1ε P6 mutant (L39Q) (from UniProt P49674 1-416) (enzyme)”, the binding entry in experiment [1] and in experiment [2] was “binds” each time.

On to “CK1ε P4 mutant (L39Q, L49Q, N78T) (from UniProt P49674 1-416) (enzyme)”, for which the binding entry in experiment [1] and in experiment [2] was “binds” in each case.

Take “wild-type (WT), full-length human casein kinase 1 epsilon (CK1ε) (from UniProt P49674 1-416) (enzyme)”: the binding entry in experiment [1] and in experiment [2] was “binds” each time.
